Measured values published in PubChem BioAssay AID1508600 (Functional Genomics Laboratory (NCATS/FGL), 2020).
About 3,700 (7%) of roughly 53,000 sequences were called active.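 The calls were made as follows: active = gene knockdowns whose robust z-score for IL-1 alpha signal is at least 2 or at most -2, so actives lie on both sides; inactive = the rest.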 Some of the results follow.

assay: Components of the Cytosolic LPS Sensing Pathway: Gene Identification via Genome-wide siRNA Screen; settings: RAW264.7 macrophages, IL-1a HTRF, actives lie on both sides, screened at 100 nM (by protocol), cells primed 5 h with Pam3CSK4 first;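 also: robust z of the log signal after scaling to non-targeting control siRNA wells of the plate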
Outline: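 IL-1a HTRF of supernatants after 24 hour LipidA transfection of Pam3CSK4-primed (5 hours) RAW264.7 cells, 48h post-siRNA transfection (100 nM). Scores: percent of plate negative-control median, then log-based robust z-score.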

z-score, inactive:
CGAAGUGUUACUUUUUCAATT against Skp2 1.69
GAGCAGAGCCAAAUCAAAGTT against Psenen 0.00512
GGAUUAGAUUAACCUCGACTT against Qrfp -1.15
GCUUCCUACUCUCCAGUUUTT against Dmkn 0.981
GCUUUUGCCCGAUGGAUUUTT against Plpp3 0.136
GCCCAAUAGCACAAAGAACTT against Lcor -0.407
GGACUUGGUGGUAUCUUACTT against Sult4a1 0.948
GCCUAACAGGGUCAAAUCUTT against Olfr272 0.515
GCUUACUACUCCGUAAAUGTT against Aldh5a1 -1.13
GGCUCUUACUCCUGUAUGUTT against Thbd 1.2
GGAAUCUCAGACCAUCCAGTT against Cpa3 0.132
CCUCUUAAGUUUUCCAUGATT against Tuba1b -0.0656
CUCCCAAAUACUGAUUAUATT against Trim6 0.0665
GGCUAUGGAAAAAGAUAUGTT against Il21r -1.02
GGUUUACUGGCCAAGAUGGTT against 4930579K19Rik -0.327
GCUGACCUUAAAUCCUGACTT against Pgpep1 0.834
GGGUAAAACCAUCAAGGAGTT against Aldh1l2 -0.305
GGAAACCAGAGAACAAAACTT against Pmp22 -0.0212
GGUCCGAAAUGAGUUUUACTT against Dnajc27 0.414
CCUGUCAUCACACUCGAGGTT against Coro6 -0.00248
GCAGUGUCCAGUAAAGAUUTT against Hdgfl1 -0.0131
CGCCUGACUUCGUGUAUUUTT against Prrg2 -1.74
UUCGCUCUUGGUCCCUUCATT against Olfr1322 1.06
CCCAAAACGGAAUAAGCUATT against Dusp8 -0.462
GGAGGACUUAGAGAGUAUGTT against Ctdp1 -0.595
GGCAGCUCUUACAACAGUATT against Htr3b -1.47
GACAUAAGCGGUAACAUCATT against Gltp 1.19
GGAGAUGGAAGUAAUUUUUTT against Plk4 -0.18
CCGUGGUUCUCUCUUAUAUTT against Olfr1106 -1.1
CGAAGAUUGCUUCACAGGCTT against Spaca4 -0.989
GGCCUUACUAAAUAUACAUTT against Trpd52l3 1.1
GCUAAGGCCUUUAUUCGCUTT against Tlr11 0.0562
GCUCCACUGGCAGUCACUUTT against Sppl3 0.32
GGAAAAGUGAAGGUGAUUCTT against Hspa13 -0.61
CCUUCAUUAACUGUGCCUATT against Slc7a7 -0.438
GCUAGAAAUGAUUUAUGUGTT against Tceanc 0.622
GGACUGAAGGAUGCCUCAATT against Cngb1 0.78
GGAUAUUCAAAUGGGUGCCTT against Bcl7b 0.538
CCACAAUGAAUGGUAUUUGTT against Slc41a2 1.2
GGAGAUUUCCCGACUUAACTT against Tnip2 1.68
CCUUUGGAUCAUGCUACAATT against Csn2 -1.05
GGCUCAAGGACAGAUGAUGTT against Hsp90b1 -1.72
GCAUAUUUGCUCCAUUGAUTT against Olfr1162 -0.609
GCAAUUAUAUUUGUUCGGGTT against Ptpdc1 0.55
GGGAAUUUACCAAGUACCCTT against Nedd9 1.53
GGAUAUCCAAGCUUUUGAATT against Dnajc9 -0.0734
GCUUUGUUCUAAAUUCAUGTT against Cd2ap 0.843
GGCUUUGACCUUUAUCACCTT against Bcdin3d -0.473
GGAAAAACUGUGCAAAUAATT against Krt75 1.26
GCAGCCUCUUCUAUUUGGCTT against Olfr354 -1.35
CCUACAGUACUUCAAGCGGTT against Hip1 -1.37
GCAAGUCCCUUGAGGAUAGTT against Vstm2b 0.419
GGGAAUUUCACACUGAGUATT against Tpm4 1.49
GCCGUUCACCAUGAAAUGGTT against Prkci -0.898
CGGAGUUUUCAAACAUAUGTT against Anapc13 -1.17
GGAAAUACUGCUGACCAUUTT against Carnmt1 0.655
GGAUGAAAUGGAAGAAGAUTT against Barx2 -0.319
CGUGGUCAGCGAGAGAGAATT against Sohlh1 1.19
GGAAGAAGAAAGAUCCAACTT against Trpt1 1.17
GGAAAACUAUCUCCUUUUGTT against Olfr716 0.355
GGACUCUUUGACCACAAGCTT against Gins3 0.424
CCUUUAGCCAGACCAUUGCTT against U2af1 0.418
GGUUGACCUUUAAGUUAAGTT against Tgfa -0.201
CCUUCUCAAGUUCGACGUGTT against Mafb 1.02
GCCUGCACUUGCUAAGUUGTT against Pla2g5 -0.64
GAGUCCUUGGUACUUUUCCTT against Olfr166 -0.0227
GUGUAGCUAGGAUUGUCAATT against Apol9b 0.0986
CCCAGAACAUCACAUGGGUTT against Olfr464 -1.4
GGUGAGAACCGAGUUCCUGTT against Dip2c 0.674
GCGAUGAUGUGCUUAUGUCTT against Zfp341 0.735
GCAAGAUUUUGACCAAAUGTT against Slc30a9 0.721
CCAGCAAGAUAAUGGUAUCTT against Grin2a -0.0219
GCCACGAAGACUAUAUAAGTT against Blvra -0.829
CCUGAACGUGAGUGGAGAATT against Man1c1 -0.8
GCCUAUGCUUAAUUAGCAUTT against Farp1 -1.27
CGGCAUCCAGUCUCAGAUGTT against Coch 1.88
GGAGCUUUUGGACAUUUAUTT against Laptm4a 0.427
GCGUGAAGUCUUUCUGGAGTT against Usp20 1.42
GGUGGAAGAGGAGAGUGAATT against Ncl -0.284
GGUGUGUGAAAUCACUCACTT against Oxnad1 0.303
GGUGACAGAGAUUUUCGAATT against Tbc1d22a 0.931
GGGCUUUCAUUCUUGUAUCTT against Olfr68 0.732
GGACUUCUUCUUUAGCAGATT against Ddit4l -0.888
GGAGAAACAGAAAGGUCACTT against Pmepa1 0.266
UUGAUUUGGUAGCCUGCUCTT against Olfr1303 0.962
GGCACAGAUGUUUUGAGAATT against Surf4 -0.954
GGAUUCAAGAGAAAAGAACTT against Nop53 -0.566
GGAGCAAACUUGCUCAGUUTT against Kctd19 -0.627
GCGACUGAUUCCUAUUAAATT against Myd88 -1.87
GGAGGCAGUGUUUUGUCAATT against Fgd4 -0.912
CGCUAUGGAUAUAAACCAUTT against Pla2g12a 1.52
GGUAACUCCAUUUUAUAGCTT against Adamts12 0.137
GGAGCAGACUUUAAAAUGATT against Stau1 -0.626
GGGCUGUCGUGAUUUUUGCTT against Grm7 0.188
GCCCACAAGGAGUGCAUGATT against Cox17 -1.37
GGAGAUCCUCUUCAACAUGTT against Xkr6 -0.483
GGCUAUGUAGAUCUUGUCATT against Cyb5r1 -1.09
GCAAGUAUGAGUGUCCCAUTT against Traf6 -1.01
CCGAUUGAAUUACUCAGCATT against Bcas2 0.226
GCUACUGGUUGGGUUGAAGTT against Tbcd 1.47

Pulled one by one from above:
z-score, inactive:
GGAGAAACAGAAAGGUCACTT against Pmepa1 0.266
GGGCUGUCGUGAUUUUUGCTT against Grm7 0.188
GCUACUGGUUGGGUUGAAGTT against Tbcd 1.47
CGUGGUCAGCGAGAGAGAATT against Sohlh1 1.19
CCUUUGGAUCAUGCUACAATT against Csn2 -1.05
GCAUAUUUGCUCCAUUGAUTT against Olfr1162 -0.609

At a glance, some entries already given.
z-score, inactive:
GCGACUGAUUCCUAUUAAATT against Myd88 -1.87
GGAGGCAGUGUUUUGUCAATT against Fgd4 -0.912

Following part.

z-score, active:
GGCUCUGGAUGAAGAACUUTT against Gfpt2 4.13
GCCGAACUUCGGAAUUCUGTT against Nf1 2.08
GGAAAUCGAGAGAAAUUCATT against Tead2 2.07
GGGCUAUUAAAUGAUUUCATT against Pax1 5
GGUCUUUAGCAAAUUGUUCTT against Lrrc6 2.02
CCUAGAGAUUGGUAUGUACTT against Tmem132e -2.1
GGCUUUUCUAGUUCCUCAATT against Pdzd7 -2.01
